Measurements as given in patent publication US9226928B2, “Spirocyclic isoxazoline parasiticidal combinations” (Zoetis Services LLC, priority 2012, dated 2016).
For at least one compound, name, drawing or mass did not settle the structure.

Legend:
[1] = system: C. felis fleas; test: Efficacy against fleas in dogs; details: all time points (Days 1-35); same groups
[2] = system: A. maculatum ticks; test: Efficacy against ticks in dogs; details: for at least 35 days; same groups

## CO/N=C1\C[C@]2(C[C@@H]3C[C@@H](C/C=C(\C)C[C@@H](C)/C=C/C=C4\CO[C@@H]5[C@H](O)C(C)=C[C@@H](C(=O)O3)[C@]45O)O2)O[C@H](/C(C)=C/C(C)C)[C@H]1C [Moxidectin, moxidectin]
[1]
  Percentage reductions in geometric and arithmetic mean live flea counts compared with placebo: virtually no reduction
[2]
  efficacy against existing A. maculatum infestation and weekly re-infestations: virtually no reduction
